Construct, isoform or probe ends are uncertain for at least one entry. Negatives hold for the conditions tested. The comparison behind a weaker result is the experiment's own reference, which may not be listed here. At least one verdict rests on a figure or table, not on a statement of the authors.
Target: PcrA (Bacillus subtilis) (UniProt O34580)
Assay: EMSA
Settings: 2.5 mM ATPgS, 3 mM Mg2+, 20 mM Tris-HCl pH 7.5, 50 mM NaCl, 3 mM MgCl2, 4 mM DTT, 0.05 mg/mL BSA, 5% glycerol, 0.1 nM 32P-labelled nucleic acid, 15 min, 37 C, recombinant protein, protein details: His6 removed (TAGZyme), label: 32P

Protein sequences, listed by entry. Tags and fused reporters are not part of them. Lines headed by an entry give the natural chain unless they say otherwise; changes in a name come on top.
UniProt O34580: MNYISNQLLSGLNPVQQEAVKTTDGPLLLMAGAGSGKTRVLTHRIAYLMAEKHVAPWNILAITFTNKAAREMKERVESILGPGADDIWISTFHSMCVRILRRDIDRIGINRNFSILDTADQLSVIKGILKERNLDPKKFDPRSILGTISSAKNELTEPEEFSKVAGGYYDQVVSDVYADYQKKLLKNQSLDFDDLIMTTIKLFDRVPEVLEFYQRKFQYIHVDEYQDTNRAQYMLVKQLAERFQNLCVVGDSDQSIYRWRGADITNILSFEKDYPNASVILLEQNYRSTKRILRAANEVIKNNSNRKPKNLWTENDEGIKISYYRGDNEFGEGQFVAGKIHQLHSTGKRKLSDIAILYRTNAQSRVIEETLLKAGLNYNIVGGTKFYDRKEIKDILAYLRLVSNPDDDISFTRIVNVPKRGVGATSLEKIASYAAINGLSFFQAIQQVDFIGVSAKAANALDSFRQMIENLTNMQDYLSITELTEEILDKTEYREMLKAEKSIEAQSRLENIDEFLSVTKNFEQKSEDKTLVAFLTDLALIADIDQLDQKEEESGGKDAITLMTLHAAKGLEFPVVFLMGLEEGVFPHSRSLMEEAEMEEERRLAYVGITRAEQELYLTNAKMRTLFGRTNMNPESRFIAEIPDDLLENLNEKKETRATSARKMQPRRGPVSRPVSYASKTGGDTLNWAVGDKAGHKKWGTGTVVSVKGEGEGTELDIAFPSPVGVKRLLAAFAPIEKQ

“AGACGCTGCCGAATTCTGGCTTGGATCTGATGCTGTCTAGAGGCCTCCACTATGAAATCG / AGCTCATAGATCGATAGTCTCTAGACAGCATCAGATCCAAGCCAGAATTCGGCAGCGTCT / CGATTTCATAGTGGAGGCCTCTAGACAGCA [3'-fork DNA (170/173/171)]”: binds (folded or branched DNA).

“AGACGCTGCCGAATTCTGGCTTGGATCTGATGCTGTCTAGAGGCCTCCACTATGAAATCG / AGCTCATAGATCGATAGTCTCTAGACAGCATCAGATCCAAGCCAGAATTCGGCAGCGTCT / GCGATTTCATAGTGGAGGCCTCTAGACAGCACGCCGTTGAATGGGCGGATGCTAATTACTATCTC / GAGATAGTAATTAGCATCCGCCCATTCAACGGCGTGCTGTCTAGAGACTATCGATCTATGAGCTCTGCAGC [HJ DNA (HJ3 in legend, HJ4 in text; 170/173/345/346)]”: binds (folded or branched DNA).

“AGACGCTGCCGAATTCTGGCTTGGATCTGATGCTGTCTAGAGGCCTCCACTATGAAATCG / AGCTCATAGATCGATAGTCTCTAGACAGCATCAGATCCAAGCCAGAATTCGGCAGCGTCT [flayed DNA (170/173)]”: binds (>10 complexes, folded or branched DNA).

“GCTCTGATGCCGCATAGTTAAGCCAGCCCCGACACCCG (double strand) [38-bp dsDNA (SM44D/SM45D)]”: binds more weakly (only at large PcrA concentrations).

“GCUCUGAUGCCGCAUAGUUAAGCCAGCCCCGACACCCG / CGGGTGTCGGGGCTGGCTTAACTATGCGGCATCAGAGC [38-bp RNA-DNA hybrid (SM44R/SM45D)]”: no binding (no stable complex, up to 400 nM, DNA:RNA hybrid).

Source: article PMC8074105, “Bacillus subtilis PcrA Helicase Removes Trafficking Barriers” (Cells, 2021)
